From PubChem BioAssay AID264 (DTP/NCI, 2004)
The list is a part of this screen's results and no random one: it is rich in T/C values a quarter to a half above the control, in often repeated tests (any T/C) and in doses without a T/C. Other doses and runs of a compound stand elsewhere. T/C gives the treated animals as a percentage of the vehicle group. Schedule codes are those of the source, read here as Q, the interval in days (D) or hours (H), X, the number of doses. Some T/C values are followed by the survivors on the day toxicity was checked, most often the fifth; where none is given, no animal had died by that day. Some values lie below zero, which means that the treated tumours became smaller. Some doses were run more than once; the results are listed from low to high. Some doses have a count of surviving animals in place of a T/C: the source holds a T/C of zero for them, seemingly a mark for toxic or unscored doses. Survivors were counted at the toxicity check, usually on the fifth day, unless a day is given; later deaths do not show.

System: nude mice, LX-1 lung xenograft intrarenal, tumor weight T/C
Assay: NCI In Vivo Anticancer Drug Screen. Data for tumor model Human Lung LX-1 Xenograft (intrarenal inoculation) in NU/NU Swiss (nude) mice
Settings: T/C endpoint: mean tumor weight change, higher T/C = larger tumour; for T/C: evaluated on day 11
Outline: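 Antitumor effect is expressed as a ratio: the mean tumor measurement of the drug-treated group relative to that of the vehicle-dosed control group.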

[1] = dose: 2.0 mg/kg/injection, schedule: Q01DX010 (ip), vehicle: water
[2] = dose: 4.0 mg/kg/injection, schedule: Q01DX010 (sc), vehicle: water
[3] = dose: 6.0 mg/kg/injection, schedule: Q04DX003 (sc), vehicle: water
[4] = dose: 12.0 mg/kg/injection, schedule: Q04DX003 (sc), vehicle: water
[5] = dose: 2400.0 mg/kg/injection, schedule: Q04DX003 (sc), vehicle: Klucel (hydroxypropylcellulose) (HPC)
[6] = dose: 600.0 mg/kg/injection, schedule: Q04DX003 (sc), vehicle: saline
[7] = dose: 100.0 mg/kg/injection, schedule: Q04DX003 (sc), vehicle: saline
[8] = dose: 800.0 mg/kg/injection, schedule: Q04DX003 (sc), vehicle: saline

COc1cccc2c1C(=O)c1c(O)c3c(c(O)c1C2=O)C[C@@](O)(C(=O)CO)C[C@@H]3OC1CC(N)C(O)C(C)O1 (stereo partly drawn)
T/C (dose: 0.5 mg/kg/injection, schedule: Q01DX010 (ip), vehicle: water): 30, 57, 58 [2 of 2 alive on day 11], 70 % of control | T/C (dose: 0.5 mg/kg/injection, schedule: Q01DX010 (sc), vehicle: water): 62, 80, 82, 120 % of control [2 of 2 alive on day 11] | T/C (dose: 1.0 mg/kg/injection, schedule: Q01DX010 (ip), vehicle: water): 18 [2 of 3 alive on day 11], 24, 36 [2 of 2 alive on day 11], 67 % of control [2 of 3 alive on day 11] | T/C (dose: 1.0 mg/kg/injection, schedule: Q01DX010 (sc), vehicle: water): 34, 52 [2 of 2 alive on day 11], 72 [2 of 3 alive on day 11], 113 % of control | T/C [1]: 35 % of control [2 of 3 alive on day 11] | survivor count [1]: 0 of 3 on day 11 and 1 of 3 on day 11 | T/C (dose: 2.0 mg/kg/injection, schedule: Q01DX010 (sc), vehicle: water): -63, 10 [2 of 2 alive on day 11], 13, 40, 44, 46, 46 [2 of 3 alive on day 11], 74, 80, 171 % of control | survivor count (dose: 4.0 mg/kg/injection, schedule: Q01DX010 (ip), vehicle: water): 0 of 2 on day 11 and 0 of 3 on day 11 | T/C [2]: -80 [2 of 3 alive on day 11], 8, 23, 26, 27, 62, 66 % of control | survivor count [2]: 0 of 3 on day 11, 1 of 3 on day 11, 1 of 2 on day 11 | T/C (dose: 4.0 mg/kg/injection, schedule: Q04DX003 (sc), vehicle: water): 145 % of control | T/C [3]: 2, 4, 30 [2 of 3 alive on day 11], 80 % of control | survivor count [3]: 1 of 3 on day 11 | T/C [4]: -56 and 2 % of control [2 of 2 alive on day 11] | survivor count [4]: 0 of 3 on day 11 and 1 of 3 on day 11 | survivor count (dose: 18.0 mg/kg/injection, schedule: Q04DX003 (sc), vehicle: saline): 1 of 3 on day 11 | survivor count (dose: 36.0 mg/kg/injection, schedule: Q04DX003 (sc), vehicle: saline): 0 of 3 on day 11

N=C(N)Sc1ccccn1
T/C (dose: 12.5 mg/kg/injection, schedule: Q01DX010 (sc), vehicle: saline): 138 % of control

COc1cc(C(=O)c2cocc2C(=O)c2ccc3c(c2)OCO3)cc(OC)c1OC
T/C [5]: 129 % of control

CC(=O)OCC(=O)[C@@]12OC(C)(C)O[C@@H]1C[C@H]1[C@@H]3CC(C=O)=C4C=C(OCCCl)CC[C@]4(C)[C@@]3(F)[C@@H](O)C[C@@]12C
survivor count (dose: 100.0 mg/kg/injection, schedule: Q04DX003 (sc), vehicle: Klucel (hydroxypropylcellulose) (HPC)): 1 of 6 on day 11 | survivor count (dose: 200.0 mg/kg/injection, schedule: Q04DX003 (sc), vehicle: Klucel (hydroxypropylcellulose) (HPC)): 2 of 6 on day 11

CC[C@](C)(O)C(=O)O[C@H]1C(=O)O[C@@H]2C[C@H]3C(C)=CC(=O)[C@@H](O)[C@]3(C)[C@H]3[C@@]4(O)OC[C@]32[C@@H]1[C@@H](C)[C@H]4O
survivor count (dose: 4.0 mg/kg/injection, schedule: Q01DX010 (sc), vehicle: Klucel (hydroxypropylcellulose) (HPC)): 1 of 6 on day 11

CCCNC1=C(C)C(=O)C2=C(C1=O)[C@H](COC(N)=O)[C@]1(OC)[C@@H]3N[C@@H]3CN21
T/C (dose: 6.0 mg/kg/injection, schedule: Q04DX003 (sc), vehicle: suspension in saline): 127 % of control | survivor count (dose: 48.0 mg/kg/injection, schedule: Q04DX003 (sc), vehicle: suspension in saline): 0 of 6 on day 11 and 3 of 5 on day 11

COc1cc2cc(c1Cl)N(C)C(=O)CC(OC(=O)C(C)C)C1(C)OC1C(C)C1CC(O)(NC(=O)O1)C(OC)/C=C/C=C(C)C2 (stereo not drawn)
T/C (dose: 25.0 micrograms/kg/injection, schedule: Q01DX010 (sc), vehicle: saline + alcohol): 135 % of control | survivor count (dose: 100.0 micrograms/kg/injection, schedule: Q01DX010 (sc), vehicle: saline + alcohol): 3 of 6 on day 11 | survivor count (dose: 200.0 micrograms/kg/injection, schedule: Q01DX010 (sc), vehicle: saline + alcohol): 1 of 6 on day 11

COC(=O)[C@@]12OC[C@]34[C@H]([C@@H](O)[C@@H]1O)[C@@]1(C)CC(=O)C(O)=C(C)[C@@H]1C[C@H]3OC(=O)[C@H](OC(=O)/C=C(\C)C(C)C)[C@@H]24
survivor count (dose: 1.0 mg/kg/injection, schedule: Q01DX010 (sc), vehicle: saline + alcohol): 0 of 3 on day 11 | survivor count (dose: 2.0 mg/kg/injection, schedule: Q01DX010 (sc), vehicle: saline + alcohol): 0 of 3 on day 11 | survivor count (dose: 4.0 mg/kg/injection, schedule: Q01DX010 (sc), vehicle: saline + alcohol): 0 of 3 on day 11

O=P(O)(NCCCl)NCCCl
survivor count (dose: 300.0 mg/kg/injection, schedule: Q04DX003 (sc), vehicle: saline): 0 of 3 on day 11 | survivor count [6]: 0 of 3 on day 11

COc1cccc2c1C(=O)c1c(O)c3c(c(O)c1C2=O)C[C@@](O)(/C(C)=N\O)C[C@@H]3OC1CC(N)C(O)C(C)O1 (stereo partly drawn)
survivor count [7]: 1 of 6 on day 11 | survivor count (dose: 200.0 mg/kg/injection, schedule: Q04DX003 (sc), vehicle: saline): 0 of 6 on day 11

C1OC1CN1CCN(CC2CO2)CC1 (stereo not drawn)
survivor count (dose: 16.0 mg/kg/injection, schedule: Q01DX010 (sc), vehicle: saline): 0 of 3 on day 11 | survivor count (dose: 32.0 mg/kg/injection, schedule: Q01DX010 (sc), vehicle: saline): 0 of 3 on day 11 | survivor count (dose: 64.0 mg/kg/injection, schedule: Q01DX010 (sc), vehicle: saline): 0 of 3 on day 11

CC1CCC(NC(=O)N(CCCl)N=O)CC1 (stereo not drawn)
survivor count (dose: 25.0 mg/kg/injection, schedule: Q01DX010 (sc), vehicle: Klucel (hydroxypropylcellulose) (HPC)): 0 of 3 on day 11 | survivor count (dose: 50.0 mg/kg/injection, schedule: Q01DX010 (sc), vehicle: Klucel (hydroxypropylcellulose) (HPC)): 0 of 2 on day 11

O=C1C=C2C(=CCOC2O)O1 (stereo not drawn)
T/C (dose: 4.0 mg/kg/injection, schedule: Q04DX003 (sc), vehicle: Klucel (hydroxypropylcellulose) (HPC)): 143 % of control

CC1(C)COCN1COCCOCN1COCC1(C)C
T/C [7]: 141 % of control | survivor count [8]: 3 of 6 on day 11

COc1cccc2c1C(=O)c1c(O)c3c(c(O)c1C2=O)C[C@@](O)(C(C)=O)C[C@@H]3OC1CC(N(Cc2ccccc2)Cc2ccccc2)C(O)C(C)O1 (stereo partly drawn)
survivor count (dose: 50.0 mg/kg/injection, schedule: Q01DX010 (sc), vehicle: water): 0 of 3 on day 11 | survivor count (dose: 100.0 mg/kg/injection, schedule: Q01DX010 (sc), vehicle: water): 0 of 3 on day 11 | survivor count (dose: 200.0 mg/kg/injection, schedule: Q01DX010 (sc), vehicle: water): 0 of 3 on day 11

CN1CCN(c2ccc3nc(-c4ccc5nc(-c6ccc(O)cc6)[nH]c5c4)[nH]c3c2)CC1
T/C [7]: 140 % of control [3 of 4 alive on day 11] | survivor count [8]: 1 of 6 on day 11

CC(=O)OC1C(O)C(C)OC(OC2C(OC(=O)C3CCC4C(C3)OC3(CC(OC(=O)/C=C/c5ccccc5)C(C)CO3)C43CO3)OC(C)C(O)C2OC(C)=O)C1O (stereo not drawn)
T/C (dose: 120.0 mg/kg/injection, schedule: Q04DX003 (sc), vehicle: distilled water + Tween-80): 129 % of control

C1CNCOC1
survivor count [6]: 3 of 6 on day 11 | survivor count (dose: 1200.0 mg/kg/injection, schedule: Q04DX003 (sc), vehicle: saline): 0 of 6 on day 11 | survivor count (dose: 2400.0 mg/kg/injection, schedule: Q04DX003 (sc), vehicle: saline): 0 of 6 on day 11

CN=C(N)N/N=C(\c1ccccc1)c1ccc(Br)cc1
survivor count (dose: 100.0 mg/kg/injection, schedule: Q04DX003 (sc), vehicle: saline with Tween-80): 2 of 6 on day 11

C(C#CCN1CCOCC1)#CCN1CCOCC1
survivor count [5]: 2 of 6 on day 11
